Results: PubChem BioAssay AID2685 (National Center for Advancing Translational Sciences (NCATS), 2010)
This is one part of the list. Shown are side measurements of this screen, not its main read-out; they come without a call. The list favours compounds with an active or inconclusive main result. Potencies come from curve fits of mixed quality, noted in brackets.

Assay: qHTS Assay for Lipid Storage Modulators in Drosophila S3 Cells;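 on cell number change: cells counted by Cell Tracker Red CMTPX staining in the red channel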
Settings: BODIPY lipid droplet fluorescence, 18-24 h; for cell number change: measured here: cell count max response, cells fed with added oleic acid
In short: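 Drosophila S3 cells loaded with oleic acid (400 uM, as added) and compounds at several concentrations; lipid droplets imaged by 488-nm laser-scanning cytometry, 500–530 nm intensity and object ratio to cell channel. Percent activity normalized to 20 uM Triacsin C.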

[1] = measured here: lipid fluorescence (Fed channel) AC50, cells fed with added oleic acid
[2] = measured here: cell number channel AC50, cells fed with added oleic acid

Compound	cell number change [%]	AC50 [1]	AC50 [2]
O=C(Nc1ccc(Br)cn1)c1coc(=O)c(Br)c1	-5.3	–	–
COc1ccc(NC(=S)NNC(=O)CCn2cc([N+](=O)[O-])cn2)cc1	-19.7	–	–
COC(=O)c1ccc(NC(=O)COc2ccc(S(=O)(=O)NC(C)C)cc2)cc1	-16	–	–
COc1ccc(/C=N/NC(=O)c2ccccc2OC)cc1COc1ccccc1[N+](=O)[O-]	-19.1	0.112 µM [falling, full curve, poor fit]	–
C=CCOc1ccc(/C=C/C(=O)OCC(=O)N2CCC(c3ccccc3)=N2)cc1	-3.99	8.2 µM [rising, partial curve, poor fit]	–
COc1ccc(CN2CCC(C(=O)Nc3ccc(Oc4ccccc4)nc3)CC2)cc1F	-49.5	–	13 µM [falling, partial curve, poor fit]
Cc1ccc(C)c(-c2nnc(NC(=O)CCS(=O)(=O)c3ccc(F)cc3)o2)c1	–	–	2.31 µM [rising, partial curve]
CCOCCCNC(=O)CN(Cc1ccc(Cl)cc1)S(C)(=O)=O	1.89	2.59 µM [rising, single point]	–
CCCN1C(=O)c2ccccc2NC1c1ccc(Cl)cc1 (stereo not drawn)	12.8	11.6 µM [falling, partial curve]	–
COc1ccc(N2CCN(C(=O)c3ccc(S(=O)(=O)N4CCOCC4)cc3)CC2)cc1	-13.4	0.517 µM [falling, full curve, poor fit]	0.517 µM [falling, partial curve, poor fit]
Cc1ccnc2nc(C(=O)OCCOc3ccc(F)cc3)nn12	36	0.82 µM [falling, partial curve, poor fit]	2.31 µM [falling, partial curve, poor fit]
COc1ccc(NC(=O)c2ccccc2Sc2ccc(NC(C)=O)nc2)cc1	65.2	23.1 µM [rising, single point]	16.4 µM [rising, single point]
COc1ccc(NC(=O)C(NC(=O)CNC(C)=O)c2ccc(C)cc2)cc1 (stereo not drawn)	-20.2	–	–
CCCCN1C(=O)C(O)=C(C(C)=O)C1c1ccccc1[N+](=O)[O-] (stereo not drawn)	59.7	29.1 µM [rising, partial curve, poor fit]	–
CS(=O)(=O)Nc1ccc(C(=O)Nc2ccccc2C(=O)N2CCCC2)cc1	-77	16.4 µM [falling, partial curve]	25.9 µM [falling, partial curve]
N#C/C(=C\c1cccnc1)C(=O)Nc1ccc(C(=O)O)cc1	-6.51	–	–
CC1=C(C#N)C(=O)NC(C)(C)C1	-8.12	–	–
CC(NC(=S)NC1CCCCC1)c1ccc(C(C)(C)C)cc1 (stereo not drawn)	–	20.6 µM [falling, single point]	–
CCc1ccc(NC(=S)N2CCC(NC(=O)C3CCCCC3)CC2)cc1	-24.8	29.1 µM [falling, partial curve, poor fit]	–
CCOC(=O)n1c(=O)n(Cc2cccc(C)c2)c2ccccc21	-4.07	32.6 µM [rising, single point]	–

Compound	cell number change [%]	AC50 [1]	AC50 [2]
CSc1nnc(C2CCCN2)n1C (stereo not drawn)	-11.3	2.06 µM [falling, full curve]	3.66 µM [falling, single point]
CN(CCC#N)C(=O)c1cc2c(Cl)nc3ccccc3c2s1	20.4	5.8 µM [rising, full curve, poor fit]	–
COc1ccc(N(Cc2cc3ccccc3[nH]c2=O)S(=O)(=O)c2ccccc2)cc1	8.86	–	–
Cc1ccc(-n2c(O)c(C=NCc3ccccn3)c3ccccc3c2=O)cc1	33.8	20.6 µM [rising, single point]	6.51 µM [rising, partial curve]
COC(=O)C1C(O)C(C)C(O)C(C)(O)/C=C\C=C(/C)C(=O)Nc2c(C)c(OC(C)=O)c3c(c2O)C(=O)C(C)=C2OCOC(=C23)/C(C)=C/C(C)(O)C(O)C(C)C1O (stereo not drawn)	146	–	11.6 µM [rising, partial curve]
CC(C)(C)[C@@H]1CCC(=O)N(CC[C@H](Sc2ccccc2)c2ccccc2)CC1	7.19	–	–
O=CN1CCN(C(=O)Cc2ccc([N+](=O)[O-])cc2)CC1	6.32	29.1 µM [rising, single point]	–
CN(CC(=O)NC1CCCc2ccccc21)S(=O)(=O)c1cccs1 (stereo not drawn)	33.4	–	32.6 µM [rising, single point]
CC(C(=O)NCC1CCCCC1)N(C)Cc1ccc(Br)cc1 (stereo not drawn)	40.7	–	0.00731 µM [rising, full curve, poor fit]
COc1ccc(C(=O)Nc2cc(C)nc3ccccc23)cc1OC	83.7	1.84 µM [rising, partial curve]	11.6 µM [rising, partial curve, poor fit]
NC(=O)NC(=O)CSc1nnc(-c2ccc(Cl)cc2)n1CC1CCCO1 (stereo not drawn)	8.14	–	–
CN1CCN(C(=O)C2CCN(S(=O)(=O)c3ccc(F)cc3)CC2)CC1	20.2	29.1 µM [falling, single point]	–
Cc1cccc(Nc2nc(N)c([N+](=O)[O-])c(NCc3ccco3)n2)c1	20.4	23.1 µM [rising, single point]	–
CCN(Cc1ccncc1)C(=O)CCc1ccccc1	-7.69	–	–
CCc1cccc(C)c1NC(=S)NCc1ccccc1	70.3	23.1 µM [falling, partial curve, poor fit]	29.1 µM [rising, single point]
O=c1c2ccccc2c2c(O)nc(-c3ccccc3)n2n1Cc1ccccc1	10.2	29.1 µM [falling, single point]	–
Cc1ccc(N/N=C2\CS(=O)(=O)N(C)c3ccsc32)cc1	-104	–	–
Cc1ccc(N(CC(=O)NCc2ccco2)C(=O)CCC(=O)Nc2ccccn2)cc1C	0.332	29.1 µM [rising, single point]	1.64 µM [rising, partial curve, poor fit]
O=C(C[n+]1cc(Br)cc(Br)c1)c1cccc([N+](=O)[O-])c1	-23.4	–	–

In the list so far, 6 have a nitro group on carbon.
Compound	cell number change [%]	AC50 [1]	AC50 [2]
COc1ccc(NC(=S)NNC(=O)CCn2cc([N+](=O)[O-])cn2)cc1	-19.7	–	–
COc1ccc(/C=N/NC(=O)c2ccccc2OC)cc1COc1ccccc1[N+](=O)[O-]	-19.1	0.112 µM [falling, full curve, poor fit]	–
CCCCN1C(=O)C(O)=C(C(C)=O)C1c1ccccc1[N+](=O)[O-] (stereo not drawn)	59.7	29.1 µM [rising, partial curve, poor fit]	–
O=CN1CCN(C(=O)Cc2ccc([N+](=O)[O-])cc2)CC1	6.32	29.1 µM [rising, single point]	–
Cc1cccc(Nc2nc(N)c([N+](=O)[O-])c(NCc3ccco3)n2)c1	20.4	23.1 µM [rising, single point]	–
O=C(C[n+]1cc(Br)cc(Br)c1)c1cccc([N+](=O)[O-])c1	-23.4	–	–
